Measurements published in article PMC11030818.
These are yes or no findings as the source states them, for the method shown. For some assays here: Binding seen in cells or lysates may run through a third protein. Some results given as binding are weak or reduced against the parent protein; the word gives no strength. For some assays here: Sequences can lack the tags named with a protein.

Chains of the proteins cited; added tags and fusions are not shown.
UniProt P70288: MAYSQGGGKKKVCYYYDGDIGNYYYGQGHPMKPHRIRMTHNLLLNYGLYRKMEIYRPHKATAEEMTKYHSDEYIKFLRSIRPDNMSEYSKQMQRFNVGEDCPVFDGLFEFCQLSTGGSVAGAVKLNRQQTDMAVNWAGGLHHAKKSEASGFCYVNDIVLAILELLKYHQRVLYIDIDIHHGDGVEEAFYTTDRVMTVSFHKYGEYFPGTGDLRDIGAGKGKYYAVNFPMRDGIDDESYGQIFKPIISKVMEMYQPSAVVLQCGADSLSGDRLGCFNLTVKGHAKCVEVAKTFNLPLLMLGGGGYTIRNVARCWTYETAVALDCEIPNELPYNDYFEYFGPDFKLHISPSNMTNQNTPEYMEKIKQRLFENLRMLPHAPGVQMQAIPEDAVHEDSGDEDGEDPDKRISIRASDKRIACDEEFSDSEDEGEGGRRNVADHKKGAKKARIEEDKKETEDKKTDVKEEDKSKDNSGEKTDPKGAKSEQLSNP

T1: GST-ATP5O (mouse) (UniProt Q9DB20)
T1 sequence: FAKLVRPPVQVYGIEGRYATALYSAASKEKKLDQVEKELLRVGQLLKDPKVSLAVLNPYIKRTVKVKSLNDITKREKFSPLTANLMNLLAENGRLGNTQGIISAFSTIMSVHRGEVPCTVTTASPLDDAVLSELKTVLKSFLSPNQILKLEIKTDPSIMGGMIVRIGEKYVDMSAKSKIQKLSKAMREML


Key:
GST-ATP5O (mouse) = molecular target: T1, GST-ATP5O (mouse); assay: pull-down; GST-pulldown; GST-ATP5O (purified from E.coli) as bait, his-tagged HDAC2-TagRFP (purified from sf9 cells) as prey; read by SDS-PAGE; both purified
[1] = molecular target: Histone deacetylase 2 (HDAC2) (UniProt P70288); assay: co-IP; coimmunoprecipitation and western blot; the text shown names neither the source of the lysate nor the precipitating antibody (methods in the supplementary information)

Row | binding (GST-ATP5O (mouse)) | binding [1] | Molecule
1 | binds | – | his-tagged HDAC2-TagRFP (from UniProt P70288 1-488) (enzyme)
2 | – | binds | ATP synthase, H+ transporting, mitochondrial F1 complex, O subunit (ATP5O) (protein, UniProt Q9DB20 24-213) FAKLVRPPVQVYGIEGRYATALYSAASKEKKLDQVEKELLRVGQLLKDPKVSLAVLNPYIKRTVKVKSLNDITKREKFSPLTANLMNLLAENGRLGNTQGIISAFSTIMSVHRGEVPCTVTTASPLDDAVLSELKTVLKSFLSPNQILKLEIKTDPSIMGGMIVRIGEKYVDMSAKSKIQKLSKAMREML
